Results are given in words; binding and its absence hold for the method and conditions named. In cells and extracts the contact can be indirect. A yes stands for co-enrichment or nearness to the bait. Other partners may have been found.
Molecular target: 3xFLAG-tagged RhlE1 (PA3950), DEAD-box RNA helicase of Pseudomonas aeruginosa (P. aeruginosa PAO1) (UniProt Q9HX66)
Assay: affinity purification with mass spectrometry

## DnaK chaperone of P. aeruginosa (from UniProt Q9HV43 1-637)
  binding: binds
